# “And” between values parts separate entries of the source, which are not always exact repeats. Equal entries are not always repeated.
# Columns and labels:
# [1] = general procedure: Boc solid-phase peptide synthesis; Boc-L-Pro-O-(PAM)-resin; chloromethylated resin (Merrifield resin); BOP reagent/DIEA for some couplings; acid chloride coupling
# [2] = general procedure: Boc solid-phase peptide synthesis; Boc-Pro-O-(PAM)-resin; BOP reagent/DIEA for some couplings; acid chloride coupling; details: whole synthesis, scale 1 mmole, head-to-tail ring
# [3] = general procedure: Boc solid-phase peptide synthesis; Boc-L-Pro-O-(PAM)-resin; BOP reagent/DIEA for some couplings; acid chloride coupling; details: whole synthesis
# [4] = general procedure: Boc solid-phase peptide synthesis; Boc-L-Pro-PAM-resin; BOP reagent/DIEA for some couplings; acid chloride coupling; details: whole synthesis, 214 nM, head-to-tail ring
# [5] = general procedure: Boc solid-phase peptide synthesis; Boc-L-Pro-(Merrifield)-resin; BOP reagent/DIEA for some couplings; acid chloride coupling; details: whole synthesis, 214 nM, head-to-tail ring
# [6] = general procedure: Boc solid-phase peptide synthesis; Boc-D-Trp-O-(Merrifield)-resin; BOP reagent/DIEA for some couplings; acid chloride coupling; details: whole synthesis, scale 1 mmole, head-to-tail ring
# [7] = whole synthesis, HPLC Method G, scale of the general procedure 1 mmole, head-to-tail ring
# [8] = scale 1 mmole, head-to-tail ring
# [9] = scale 0.5 mmole, head-to-tail ring
# [10] = late stage modification step, HPLC (Method G), head-to-tail ring
# [11] = whole synthesis, 210 nM, scale of the general procedure 1 mmole, head-to-tail ring
substance,measurement,setting,value
C-[D-1-Napthylalanyl-L-isoleucyl-D-pipecolyl-L-(N-t-butyloxycarbonyl)lysyl- D-(N-methyl)phenylalanyl-L-prolyl],final HPLC purity,[1]; [7],99%
same,isolated mass,[2],350 mg
same,isolated yield,[2],77%
C-[D-(O-Benzyl)-tyrosinyl-L-isoleucyl-D-pipecolyl-L-(N-t-butyloxycarbonyl)lysyl-D-(N-methyl)phenylalanyl-L-prolyl],final HPLC purity,[1]; [7],99%
same,isolated mass,[3]; [8],700 mg
same,isolated yield,[3]; [8],73%
C-[D-(O-t-Butyl)Tyrosiniyl-L-isoleucyl-D-pipecolyl-L(N-t-butyloxycarbonyl)lysyl-D-(N-methyl)phenylalanyl-L-prolyl],final HPLC purity,[1]; [7],99%
same,isolated mass,[3]; [9],700 mg
same,isolated yield,[3]; [9],73%
Cyclo[D-Trp-L-Ile-D-Pip-L-Pip-D-(N^α Me-O-Bzl)-Tyr-L-Pro],final HPLC purity,"[1]; whole synthesis, HPLC (Method G), scale of the general procedure 1 mmole",99%
same,isolated yield,"[1]; whole synthesis, scale of the general procedure 1 mmole",35%
same,isolated mass,[3]; scale 1 mmole,350 mg
c-[D-2-Naphthylalanyl-L-isoleucyl-D-pipecolyl-L-(N-t-butyloxycarbonyl)lysyl-D-(N-methyl)phenylalanyl-L-prolyl],final HPLC purity,[1]; [7],99%
same,isolated mass,[3]; [8],300 mg
same,isolated yield,[3]; [8],66%
c-[D-2-Trytophanyl-L-isoleucinyl-D-pipecolyl-L-piperazin-2-yl-(4-Cbz)-D-histidinyl(BOM)-L-prolyl],final HPLC purity,[4],>96% pure
c-[D-Phenylalanyl-L-homophenylalanyl-D-pipecolyl-L-pipecolyl-D-(N-methyl)phenylalanyl-L-prolyl],final HPLC purity,[1]; [7],95%
same,isolated mass,[3]; [8],340 mg
same,isolated yield,[3]; [8],43%
c-[D-Phenylalanyl-L-isoleucinyl-D-pipecolyl-L-pipecolyl-D-(β-t-butyl)aspartyl-L-prolyl],final HPLC purity,[5],>98% pure
c-[D-Phenylalanyl-L-phenylalanyl-D-pipecolyl-L-pipecolyl-D-(N-methyl)phenylalanyl-L-prolyl],final HPLC purity,[1]; [7],95%
same,isolated mass,[3]; [8],348 mg
same,isolated yield,[3]; [8],45%
c-[D-Tryptophanyl-L-homophenylalanyl-D-pipecolyl-L-pipecolyl-D-(N-methyl)phenylalanyl-prolyl],final HPLC purity,[1]; [7],99%
same,isolated mass,[3]; [8],520 mg
same,isolated yield,[3]; [8],63%
c-[D-Tryptophanyl-L-isoleucinyl-D-pipecolyl-L-pipecolyl-D-(β-t-butyl)aspartyl-L-prolyl],final HPLC purity,[5],>95% pure
c-[D-Tryptophanyl-L-isoleucinyl-D-pipecolyl-L-piperazin-2-yl-D-histidinyl(BOM)-L-prolyl],final HPLC purity,[1]; [10],>99% pure
c-[D-Tryptophanyl-L-isoleucinyl-D-Δ-piperazyl-L-pipecolyl-D-histidyl- L-prolyl],final HPLC purity,[1]; [11],>97% pure
c-[D-Tryptophanyl-L-isoleucinyl-D-Δ-piperazyl-L-piperazin-2-yl(4-Cbz)-N-Me-D-phenylalanyl-L-prolyl],final HPLC purity,"[1]; whole synthesis, 259 nM, scale of the general procedure 1 mmole, head-to-tail ring",>98.4% pure
c-[D-Tryptophanyl-L-isoleucinyl-D-Δ-piperazyl-L-piperazin-2-yl-N^α -Me-D-phenylalanyl-L-prolyl],final HPLC purity,"[1]; late stage modification step, HPLC (Method G)",>96% pure
c-[D-Tryptophanyl-L-isoleucyl-D-pipecolyl-L-pipecolyl-D-(N-methyl)tyrosyl-L-prolyl],step yield,"[1]; late stage modification step, head-to-tail ring, run 1",94% and 53%
"c-[D-Tryptophanyl-L-isoleucyl-D-pipecolyl-L-pipecolyl-D-histidyl-3,4-dehydroprolyl]",final HPLC purity,[1]; [7],99%
same,isolated mass,[6],301 mg
same,isolated yield,[6],40%
c-[D-Tryptophanyl-L-isoleucyl-D-piperazyl(N^δ -Boc)-L-or nithyl-D-histidyl-L-prolyl],final HPLC purity,"[1]; whole synthesis, HPLC Method L, scale of the general procedure 1 mmole",92.18%
c-[D-Tryptophanyl-L-phenylalanyl-D-pipecolyl-L-pipecolyl-D-(N-methyl)phenylalanyl-prolyl],final HPLC purity,[1]; [7],99%
same,isolated mass,[3]; [8],611 mg
same,isolated yield,[3]; [8],75%
c-[D-Trytophanyl-L-isoleucinyl-D-pipecolyl-L-piperazin-2-yl-D-tryptophanyl- L-prolyl],final HPLC purity,"[1]; late stage modification step, 210 nM, head-to-tail ring",>97.7%
c-[D-Tyrosyl-L-isoleucyl-D-piperazyl-L-piperazyl-D-phenylalanyl-L-prolyl],final HPLC purity,[1]; [10],98.3% pure
c-[N-Me-D-Alanyl-L-isoleucyl-D-pipecolyl-L-pipecolyl-N-Me-D-phenylalanyl-L- prolyl],final HPLC purity,[1]; [11],>96.5% pure
c-[N-Me-D-Homophenylalanyl-N-Me-L-isoleucyl-D-pipecolyl-N-Me-D-phenylalanyl-L-prolyl],final HPLC purity,"[1]; late stage modification step, 215 nM, head-to-tail ring",>97.5% pure
same,step yield,"[1]; late stage modification step, head-to-tail ring",22.5% yield
c-[Phenylalanyl-L-isoleucinyl-D-piperazin-2-yl(4-Cbz)-D-piperazin-2-yl(4-Cbz)-D-(N^α -methyl)phenylalanyl-L-prolyl],final HPLC purity,"[1]; whole synthesis, 210 nM, scale of the general procedure 1 mmole",>99%
cyclo[D-Phe-L-Ile-D-Pip-L-Pip-D-(N^α Me)Phe-L-Pro],final HPLC purity,"[1]; cyclisation step, HPLC (Method G)",99%
same,cyclisation yield,"[1]; cyclisation step, from hydrazide",70%

# — patent US5225528A (priority 1990, dated 1993)
